In the supplement of paper PMC12542422 one finds fraction data, which are given here for 28 compounds.

Structures can show the parent of a compound that is named as a salt. ± gives the standard deviation of the averaged measurements. The list shows a part of the results. These are raw signals, not scaled to a control.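 Across three biological replicates, HeLa cells were imaged for ribosome assembly using ENP1 staining (export block present or absent) or inducible tagged ribosomal protein reporters. Machine learning classified each cell's signal localization relative to DMSO controls. Hits exceeded the DMSO false-positive mean by five standard deviations and were then visually confirmed.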

The first experiment relates to HeLa K (ENP1 immunofluorescence, +LMB). The experiment in a line: fraction of cells with nucleolar or nucleolar/nucleoplasmic ENP1 signal (MainHitrate); higher = more cells with nucleolar/nuclear readout signal (for ENP1 -LMB: less RNAPI inhibition; for +LMB ENP1 and RP reporters: stronger nuclear/nucleolar retention, i.e. ribosome biogenesis defect). To be noted: concentration: 1 µM; treatment time: 6 h; ENP1 +LMB; leptomycin B: 20 nM, last 1.5 h.
`COc1cc2c(cc1OC)CC(=O)N(CCCN(C)C[C@H]1Cc3cc(OC)c(OC)cc31)CC2` [Ivabradine HCl (Procoralan)] returned a fraction of 0.0734 ± 0.1.
Consider `NC(CO)(CO)CO` [Trometamol], for which the fraction worked out at 0.0867 ± 0.13.
The same measure, in the same setting: the value for `COc1ccc(CNc2nc(N3CCC[C@H]3CO)ncc2C(=O)NCc2ncccn2)cc1Cl` [Avanafil] was 0.0345 ± 0.039.
Same read-out and setting: with `C[C@@H]1C(=O)O[C@H]2C[C@@]34[C@H]5C[C@@H](C(C)(C)C)[C@]36[C@@H](OC(=O)[C@@H]6O)O[C@@]4(C(=O)O5)[C@]21O` [Ginkgolide A] the figure was 0.112 ± 0.15; with `CCOc1nc2cccc(C(=O)O)c2n1Cc1ccc(-c2ccccc2-c2noc(=O)[nH]2)cc1` [Azilsartan (TAK-536)], 0.109 ± 0.14.
In turn, `O=C(c1ccc(OCCN2CCCCC2)cc1)c1c(-c2ccc(O)cc2)sc2cc(O)ccc12` [Evista (Raloxifene Hydrochloride)] displayed a fraction of 0.11 ± 0.11.
Turning to `CN(CCOc1ccc(CC2SC(=O)NC2=O)cc1)c1ccccn1` (stereo not drawn) [Rosiglitazone (Avandia)], the fraction stood at 0.125 ± 0.18.
Still for that read-out and setting: with `CCC(CC)[C@H](NC(C)=O)[C@@H]1[C@H](O)[C@@H](C(=O)O)C[C@H]1NC(=N)N` [Peramivir Trihydrate] the figure was 0.15 ± 0.17; with `COc1c(N2CCNC(C)C2)c(F)cc2c(=O)c(C(=O)O)cn(C3CC3)c12` (stereo not drawn) [Gatifloxacin], 0.117 ± 0.022; with `CCCCc1oc2ccc(NS(C)(=O)=O)cc2c1C(=O)c1ccc(OCCCN(CCCC)CCCC)cc1` [Dronedarone HCl (Multaq)], 0.13 ± 0.17.
On the same count and under the same terms, with `Nc1cc(N2CCCCC2)nc(N)[n+]1[O-]` [Minoxidil] the figure was 0.17 ± 0.18; with `Cc1nnc(C(=O)NC(C)(C)c2nc(C(=O)NCc3ccc(F)cc3)c(O)c(=O)n2C)o1` [Raltegravir (MK-0518)], 0.0994 ± 0.14.

The test system of a further experiment is HeLa K (ENP1 immunofluorescence, no LMB). Described as above. The note with it: concentration: 1 µM; treatment time: 6 h; ENP1 -LMB; leptomycin B: none.
As for `CCS(=O)(=O)CCn1c([N+](=O)[O-])cnc1C` [tinidazole], the fraction was 0.992 ± 0.013.
On the same count and under the same terms, the value for `CCc1c2c(nc3ccc(OC(=O)N4CCC(N5CCCCC5)CC4)cc13)-c1cc3c(c(=O)n1C2)COC(=O)[C@]3(O)CC` [Irinotecan] was 0.9971 ± 0.0051.
The same measure, in the same setting: with `C=C1/C(=C\C=C2/CCC[C@]3(C)[C@@H]([C@H](C)/C=C/[C@H](C)C(C)C)CC[C@@H]23)C[C@@H](O)C[C@@H]1O` [Doxercalciferol (Hectorol)] the figure was 0.9988 ± 0.0021; with `C#C[C@]1(O)CC[C@H]2[C@@H]3CCC4=CC(=O)CC[C@@H]4[C@H]3CC[C@@]21CC` [Levonorgestrel (Levonelle)], 0.999 ± 0.0018; with `CC1(C)[C@@H](O[C@H]2O[C@H](C(=O)O)[C@@H](O)[C@H](O)[C@H]2O[C@@H]2O[C@H](C(=O)O)[C@@H](O)[C@H](O)[C@H]2O)CC[C@]2(C)[C@H]3C(=O)C=C4[C@@H]5C[C@@](C)(C(=O)O)CC[C@]5(C)CC[C@@]4(C)[C@]3(C)CC[C@@H]12` [Ammonium Glycyrrhizinate (AMGZ)], 0.989 ± 0.02.
Consider `CC(=O)O[C@H]1CC[C@@]2(C)C(=CC[C@@H]3[C@@H]2CC[C@]2(C)C(c4cccnc4)=CC[C@@H]32)C1` [Abiraterone Acetate (CB7630)], for which the fraction was determined as 0.987 ± 0.023.
In the case of `Cc1onc(-c2ccccc2Cl)c1C(=O)N[C@@H]1C(=O)N2[C@@H]1SC(C)(C)[C@@H]2C(=O)O` [Cloxacillin sodium (Cloxacap)], the fraction was 0.99 ± 0.018.
Same read-out and setting: with `CCCCOc1ccc(CC(=O)NO)cc1` [Bufexamac] the figure was 0.99 ± 0.018; with `COc1cc2nccc(Oc3ccc(NC(=O)C4(C(=O)Nc5ccc(F)cc5)CC4)cc3)c2cc1OC` [XL-184 (Cabozantinib)], 0.9978 ± 0.0039.
`CCCCCCCCCCCCCCCCO` [1-Hexadecanol] gave a fraction of 0.99 ± 0.017.
Compound `Nc1nc(=O)[nH]cc1F` [Flucytosine (Ancobon)] displayed a fraction of 0.9978 ± 0.0038.
Still for that read-out and setting: with `N=C(N)NC(=O)c1nc(Cl)c(N)nc1N` [Amiloride hydrochloride dihydrate] the figure was 0.994 ± 0.011.
Still for that read-out and setting: with `NC(CO)C(=O)NNCc1ccc(O)c(O)c1O` (stereo not drawn) [Benserazide] the figure was 0.988 ± 0.021; with `CCC(=O)NCC[C@@H]1CCc2ccc3c(c21)CCO3` [Ramelteon (TAK-375)], 0.9982 ± 0.003; with `COc1cccc2c1C(=O)c1c(O)c3c(c(O)c1C2=O)C[C@@](O)(C(=O)CO)C[C@@H]3O[C@H]1C[C@H](N)[C@@H](O)[C@H](C)O1` [Epirubicin Hydrochloride], 0.686 ± 0.54.
Still for that read-out and setting: with `CN(C)[C@@H]1C(O)=C(C(N)=O)C(=O)[C@@]2(O)C(O)=C3C(=O)c4c(O)cccc4[C@@](C)(O)[C@H]3[C@H](O)[C@@H]12` [Oxytetracycline dihydrate] the figure was 0.976 ± 0.042.
